From PubChem BioAssay AID1487 (National Center for Advancing Translational Sciences (NCATS), 2009)
The list shows a part of the results. The main result of the screen is listed elsewhere. These columns were measured beside it and carry no call. The list favours compounds with an active or inconclusive main result. The note in brackets gives the kind of curve behind each potency; many fits are weak.

Test: qHTS Assay for Modulators of Lamin A Splicing
Details: HeLa LMNA splicing GFP/RFP minigene ratio, 48 h
How it was run: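 Read-out is the ratio of GFP to DsRed2 object intensity, acquired by 488 nm laser-scanning cytometry on HeLa lamin A-EGFP minigene reporter cells. Compound incubation 48 hrs at 37 °C in Opti-MEM with 2% FBS; DMSO 0.5% final.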

[1] = measured here: GFP splicing reporter channel
[2] = measured here: RFP viability control channel

Compound	AC50 [1]	AC50 [2]
CSc1cccc(N2C(=O)N(CC(=O)NCc3ccccc3Cl)c3ccccc3S2(=O)=O)c1	0.282 µM [rising, partial curve]	6.31 µM [rising, partial curve, poor fit]
Cc1ccc(N=C(NO)c2nonc2N)c(C)c1	5.01 µM [rising, partial curve, poor fit]	14.1 µM [rising, partial curve]
CCOc1ccc(C(=O)c2oc3ccccc3c2NC(=O)c2cc(-c3ccccc3)on2)cc1	12.6 µM [rising, partial curve, poor fit]	
Cc1cccc2sc(N(Cc3cccnc3)C(=O)Cc3ccccc3)nc12		8.91 µM [rising, partial curve]
Cc1cc(Nc2ccc(C(C)C)cc2)nc(-n2nc(C)cc2C)n1	2.51 µM [rising, partial curve, poor fit]	7.08 µM [rising, full curve, poor fit]
C=CCN(c1ccc(C(=O)Nc2cc(C)cc(C)c2)cc1)S(C)(=O)=O	14.1 µM [rising, single point]	35.5 µM [rising, single point]
CCN(CC)c1ccc(/C=N/NC(=O)Cc2cccs2)c(O)c1	31.6 µM [rising, single point]	35.5 µM [rising, single point]
COc1ccc(Cl)cc1Nc1nc(-c2sc(NC(=O)C(C)(C)C)nc2C)cs1	4.47 µM [rising, partial curve, poor fit]	3.55 µM [rising, full curve]
OC[C@H]1O[C@@H](n2cnc3c(N[C@H]4CC5CCC4C5)ncnc32)[C@H](O)[C@@H]1O (some centres undefined)		6.31 µM [falling, single point]
CN1CCN(c2cnn(-c3ccccc3)c(=O)c2Br)CC1		0.0178 µM [falling, full curve, poor fit]
COc1ccc(S(=O)(=O)N2CCN(C(=O)COc3ccc4c(C)cc(=O)oc4c3)CC2)cc1		3.55 µM [rising, full curve, poor fit]
CC(C)(C)c1ccc(S(=O)(=O)N2CCCCC2)cc1	14.1 µM [rising, single point]	12.6 µM [rising, partial curve]
CCOc1ccc(S(=O)(=O)n2cnc3cc(C)c(C)cc32)cc1		8.91 µM [rising, partial curve]
O=C(Nn1cc(C(=O)Nc2ccccc2F)c2ccccc2c1=O)c1cnccn1		8.91 µM [rising, partial curve, poor fit]
Cc1cccc(Cn2c(SCc3ccc(C(=O)NCCc4ccccc4)cc3)nc3cccnc32)c1	10 µM [falling, partial curve]	
CCCn1c(NC(=O)c2ccc(Cl)c(S(=O)(=O)N3CCCC3)c2)nc2ccccc21	14.1 µM [rising, partial curve]	11.2 µM [rising, partial curve]
CC(C)(CNC(=O)c1sc2cc(F)ccc2c1Cl)N1CCOCC1	35.5 µM [rising, single point]	35.5 µM [rising, single point]
CC(=O)Nc1cccc(NC(=O)C2(c3cccs3)CCOCC2)c1	0.02 µM [falling, full curve, poor fit]	0.0141 µM [falling, full curve, poor fit]
CC(C)Cc1ccc(C(C)C(=O)Nc2nccs2)cc1 (centres undefined)	17.8 µM [rising, single point]	25.1 µM [rising, single point]
O=C(CC1CCCCC1)NCCOc1ccccc1	10 µM [rising, partial curve]	
Cc1ccc(OCc2nnc(SCc3ccc(C#N)cc3)n2-c2ccc(C)cc2)cc1		5.01 µM [rising, partial curve, poor fit]
CCOC(=O)CC(=O)CSc1nc2ccccc2c(=O)n1CCc1ccccc1	35.5 µM [rising, partial curve, poor fit]	25.1 µM [rising, partial curve]
O=C(Nc1ccccc1)Nc1c(F)cccc1F	0.251 µM [falling, full curve, poor fit]	
CCOC(=O)C1=C(C)NC(=S)NC1/C=C/c1ccccc1 (centres undefined)		14.1 µM [rising, single point]
CCCc1ccc(OCc2ccc(C(=O)N3CCN(c4ccccn4)CC3)o2)c(OC)c1	22.4 µM [rising, single point]	15.8 µM [rising, single point]
Cc1ccsc1/C=N/N1CCN(c2ccccc2)CC1		10 µM [rising, single point]
O=C(c1cc(Cl)cc(Cl)c1)N1CCC(=O)N(C(COCc2ccccc2)Cc2ccccc2)CC1 (centres undefined)		35.5 µM [rising, single point]
Cc1ccc(Cn2cnc3ccccc32)cc1		15.8 µM [rising, single point]

Reformatted field by field: part of the list above.
CCOC(=O)CC(=O)CSc1nc2ccccc2c(=O)n1CCc1ccccc1
  AC50 [1]: 35.5 µM [rising, partial curve, poor fit]
  AC50 [2]: 25.1 µM [rising, partial curve]
O=C(Nc1ccccc1)Nc1c(F)cccc1F
  AC50 [1]: 0.251 µM [falling, full curve, poor fit]
CCOC(=O)C1=C(C)NC(=S)NC1/C=C/c1ccccc1 (centres undefined)
  AC50 [2]: 14.1 µM [rising, single point]

(listing goes on)

Compound	AC50 [1]	AC50 [2]
Cn1cc(S(=O)(=O)N2CCCC2)cc1C(=O)Nc1ccc(C(F)(F)F)cc1		0.00794 µM [falling, full curve, poor fit]
CC(=O)Nc1cccc(C(=O)OCC(=O)NC(C)c2ccc(F)cc2)c1 (centres undefined)		0.0447 µM [falling, full curve, poor fit]
N#Cc1ccccc1/C=N/Nc1nc(-c2ccccc2)c2cc(Cl)ccc2n1	20 µM [falling, single point]	20 µM [falling, single point]
CCCN(CCC)C(C(=O)Nc1cccc(OC)c1)c1ccccc1 (centres undefined)	35.5 µM [rising, single point]	20 µM [rising, single point]
Nc1nc(Cl)cc(N2CCC(c3cc(-c4ccc(Cl)cc4Cl)n[nH]3)CC2)n1	22.4 µM [falling, single point]	17.8 µM [falling, single point]
CCN(CC)S(=O)(=O)c1cccc(C(=O)Nc2ccc(Cl)cn2)c1		15.8 µM [rising, single point]
O=C(COc1ccccc1)NNc1c2ccccc2nc2ccccc12	17.8 µM [falling, single point]	5.01 µM [falling, single point]
O=C(Cn1ncc(Cl)c(Cl)c1=O)NCC1CCCCC1		14.1 µM [falling, partial curve]
COc1ccc(N=Nc2nc3cc(Br)c(Br)cc3n2C)c(OC)c1	12.6 µM [falling, partial curve]	12.6 µM [falling, partial curve]
NC1=NC(=Nc2ccc(Br)cc2)c2ccccc21	8.91 µM [rising, partial curve, poor fit]	31.6 µM [rising, single point]
CC(Cl)C(=O)NC(=O)NC12CC3CC(CC(C3)C1)C2 (centres undefined)		8.91 µM [rising, partial curve, poor fit]
CC(C)Oc1ccc(C(=O)Nc2ccc(N(C)C)cc2)cc1		0.0141 µM [rising, full curve, poor fit]
Cc1ccc(CN2CC(C(=O)Nc3cccc(S(=O)(=O)N4CCCCC4)c3)CC2=O)cc1 (centres undefined)	0.01 µM [rising, full curve, poor fit]	17.8 µM [rising, partial curve]
CC(C)CN(CC(C)C)C(=O)C12CCC(C)(C(=O)C1)C2(C)C (centres undefined)	0.0891 µM [falling, full curve, poor fit]	
COCc1nnc(NC(=O)c2ccc(S(=O)(=O)N(C)c3ccccc3)cc2)o1		22.4 µM [rising, single point]
Cc1ccc(C)c(N=C2CCCN2Cc2ccccc2)c1C#N		35.5 µM [rising, single point]
CCc1nnc(NC(=O)CSc2nccn2Cc2ccc(F)cc2)s1		3.16 µM [falling, partial curve]
CCOc1ccccc1NC(=O)NCCC1=CCCCC1	0.00316 µM [falling, full curve, poor fit]	
CCCCNC(=O)/C(C#N)=C/c1ccc(C(=O)OC)cc1	5.01 µM [falling, partial curve, poor fit]	35.5 µM [falling, single point]
Fc1ccc(COc2ccccc2CNCc2ccncc2)cc1		14.1 µM [rising, single point]
Cc1cc(C)cc(NS(=O)(=O)c2ccc(NC(=O)C3CCCCC3C(=O)O)cc2)c1 (centres undefined)		10 µM [rising, partial curve, poor fit]
CC(C)(C)NC(=O)Cn1c(=O)oc2cc(S(=O)(=O)N3CCc4ccccc43)ccc21		15.8 µM [rising, single point]
Cc1cccc(C(=O)Nc2ccccc2N2CCN(c3ccc(F)cc3)CC2)c1	35.5 µM [rising, single point]	31.6 µM [rising, single point]
COc1ccc(OC)c(C2C(C(=O)c3cc4ccccc4o3)=C(O)C(=O)N2c2cc(C)on2)c1 (centres undefined)		7.08 µM [rising, partial curve]
COC(=O)CSc1nc2ccc(C)cc2cc1C#N		11.2 µM [falling, partial curve]
Clc1ccc(C2=CSC3=NCCN23)cc1Cl	14.1 µM [rising, partial curve, poor fit]	11.2 µM [rising, partial curve, poor fit]
Cc1ccc2c(c1)-c1c(c(C(=O)NCCc3ccccc3)nn1C)CS2	35.5 µM [falling, single point]	0.158 µM [falling, full curve, poor fit]
